Primary screen of a compound library

The values are deposited in ChEMBL (CHEMBL3988442, “University of Dundee, Small-Polar-MMV Screening Library” (2021)).

Mtb growth Cornell: 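Whole-cell assay for inhibitors of Mycobacterium tuberculosis growth, labelled Cornell in the record; the read-out is not stated. The concentration is filed as 10 mM, unlikely as a test dose, so the dose is not known. The record gives no direction; compounds strong in two other growth screens of this library score well above the rest, so higher reads as stronger inhibition. Size under these conditions: about 53,000 compounds, about 900 of them at 50% or above in at least one test.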
Mtb heat-shock: 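Assay on Mycobacterium tuberculosis, filed only as a heat shock assay from Cornell; the read-out is not stated. The concentration is filed as 10 mM, unlikely as a test dose, so the dose is not known. Higher reads as stronger inhibition (inferred: compounds with an IC50 in retests scored well above the rest). About 69,000 compounds were tested under these conditions; 1.4% (about 930) showed 50% or more at least once.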

Each number is a percent effect as filed.
How 0% and 100% were set is not recorded. Most values in the screen are low, and negative values occur.
Compounds were drawn at random from those tested, without regard to their results.

compound: Cc1cc(NC(=O)NCCc2ccc(S(N)(=O)=O)cc2)n(C)n1
Mtb growth Cornell: -19.43%
Mtb heat-shock: 0.3449%

compound: OC(CN1CCN(CC(F)F)CC1)c1ccc(Br)cc1 (stereo not drawn)
Mtb growth Cornell: 23.76%
Mtb heat-shock: 12.89%

compound: O=C(c1[nH]nc(C2CC2)c1Cl)N1CCN(S(=O)(=O)c2ccccc2)CC1
Mtb growth Cornell: -3.32%
Mtb heat-shock: -5.532%

compound: COc1ccc(CC(=O)N2CC(=O)NCC(C)(C)C2)cc1
Mtb growth Cornell: -53.51%
Mtb heat-shock: -27.67%

compound: Cc1cc(NCc2noc(C(C)C)n2)nc(-c2ccccc2)n1
Mtb growth Cornell: 15.02%
Mtb heat-shock: 3.974%

compound: Clc1cncc(NCc2cccc(OCCN3CCOCC3)c2)n1
Mtb growth Cornell: 22.65%
Mtb heat-shock: 2.326%

compound: O=C(O)[C@@H]1CN(C(=O)CN2Cc3ccccc3C2)C[C@H]1c1ccncc1
Mtb heat-shock: -16.32%

compound: O=C(Nc1ccccc1)c1cc2n(n1)CCCN(C(=O)N1CCCC1)C2
Mtb growth Cornell: -0.5788%
Mtb heat-shock: -16.42%

compound: NC(=O)C1CCN(C(=O)CCCc2ccc(Cl)c(Cl)c2)CC1
Mtb growth Cornell: 25.53%
Mtb heat-shock: 25.91%

compound: CCC(C)(NCC(=O)Nc1nc(C)cs1)c1nc(C)cs1 (stereo not drawn)
Mtb growth Cornell: -15.99%
Mtb heat-shock: -1.586%

compound: CNc1nc2c(s1)C(c1cccc(Cl)c1Cl)CC(=O)N2 (stereo not drawn)
Mtb growth Cornell: 35.33%
Mtb heat-shock: -25.47%

compound: O=C(c1coc(COc2cccc3cnccc23)n1)N1CCCCCC1
Mtb growth Cornell: 15.31%
Mtb heat-shock: -13.29%

compound: COc1ccc(CC(=O)N2CCCC(Cn3cc(CN)nn3)C2)cc1 (stereo not drawn)
Mtb growth Cornell: 20.84%
Mtb heat-shock: 6.062%

compound: O=C(O)C(F)(F)F.c1ccc(CN2CCc3ncnc(C4CC4)c3CC2)cc1
Mtb growth Cornell: -10.23%
Mtb heat-shock: -16.81%

compound: CCCc1cnc(C)nc1N1CCC2(CCCO2)CC1
Mtb growth Cornell: 10.11%
Mtb heat-shock: -0.08387%

compound: CN(C)C(=O)CC1CC2(CCNCC2)c2cc(F)ccc21 (stereo not drawn)
Mtb growth Cornell: 10.28%
Mtb heat-shock: -2.25%

compound: CCOC(=O)c1n[nH]cc1CN1CCOC(Cc2ccc(OC)cc2)C1 (stereo not drawn)
Mtb heat-shock: -212.6%

compound: NC(=O)C1CCCN(C(=O)c2cccc(OCc3cscn3)c2)C1 (stereo not drawn)
Mtb heat-shock: 1.332%

compound: CC(=O)N(C)c1nc(CN2CCN(c3nccs3)CC2)cs1
Mtb growth Cornell: 16.91%
Mtb heat-shock: 2.848%

compound: Cc1noc(C)c1CCCNC(=O)C1CCCN(C(=O)C2CC2)C1 (stereo not drawn)
Mtb growth Cornell: -6.595%
Mtb heat-shock: 7.454%

compound: CCS(=O)(=O)CCN1CCC(N(C)Cc2noc(C(C)C)n2)C1 (stereo not drawn)
Mtb growth Cornell: 13.23%
Mtb heat-shock: 2.09%

compound: CC(=O)c1ccc(C(=O)NCC2Cc3ccccc3O2)s1 (stereo not drawn)
Mtb growth Cornell: -7.617%
Mtb heat-shock: -8.255%

compound: O=C(C1CCCC1)N1CCCC1c1nnc2n1CCCCC2 (stereo not drawn)
Mtb growth Cornell: -1.073%
Mtb heat-shock: -4.656%

compound: [H][C@]12CCCCN1CCC[C@H]2CNC(=O)CCn1ccc2cc(Br)ccc21
Mtb growth Cornell: -4.435%
Mtb heat-shock: 1.918%

compound: O=C(NC1CC1)C1CCCN1c1ncnc2ccsc12 (stereo not drawn)
Mtb growth Cornell: -15.67%
Mtb heat-shock: -4.803%

compound: COc1ncc(-c2cc(-c3ccn(C)c3)nc(N)c2C#N)cn1
Mtb growth Cornell: 5.831%
Mtb heat-shock: -43.44%

compound: CCN1CCCC(CNC(=O)C2(c3cccc(Cl)c3)CC2)C1 (stereo not drawn)
Mtb heat-shock: -18.03%

compound: COc1ccc(COCC(O)CN2CCC(c3ccn[nH]3)CC2)cc1 (stereo not drawn)
Mtb heat-shock: -17.84%

compound: Cc1ccsc1CN(CCN(C)C)C(=O)c1ccccc1C#N
Mtb growth Cornell: 8.859%
Mtb heat-shock: -16.34%

compound: Cc1noc(C)c1CCC(=O)Nc1ccn(C)n1
Mtb growth Cornell: -3.564%
Mtb heat-shock: 14.8%

compound: Cc1nc(C(C)C)ncc1C(=O)N1CCc2c(nc(N(C)C)[nH]c2=O)C1
Mtb growth Cornell: 2.283%
Mtb heat-shock: -12.2%

compound: CN1CCN(C[C@@H]2CN(C3Cc4ccccc4C3)C[C@@H]2CO)CC1
Mtb heat-shock: -40.01%

compound: Cn1cc(CN2CCC3(CC2)CCN(Cc2ccccn2)CC3)cn1
Mtb growth Cornell: -9.95%
Mtb heat-shock: -23.08%

compound: Cn1cc(C2CCCN2C(=O)COCCOc2ccccc2)cn1 (stereo not drawn)
Mtb heat-shock: -11.68%

compound: CC(C)CN(Cc1nc2c(cnn2C)c(=O)[nH]1)C(C)C
Mtb growth Cornell: 15.1%
Mtb heat-shock: 9.965%

compound: [H][C@@]12CCN(C[C@@H]1CC)[C@@H](CNC(=O)Nc1ccccc1)C2
Mtb heat-shock: -5.923%

compound: CCOCC(O)c1nc2c([nH]1)CC(C)(C)CNC2=O (stereo not drawn)
Mtb growth Cornell: 14.63%
Mtb heat-shock: 2.926%

compound: CCC(CNC(=O)c1cc(CC(C)C)nn1C)N(C)CC (stereo not drawn)
Mtb growth Cornell: 0.6485%
Mtb heat-shock: 15.1%

Repeated from the top, 4 entries:

| compound | Mtb growth Cornell | Mtb heat-shock |
|---|---|---|
| `Cc1cc(NC(=O)NCCc2ccc(S(N)(=O)=O)cc2)n(C)n1` | -19.43% | 0.3449% |
| `OC(CN1CCN(CC(F)F)CC1)c1ccc(Br)cc1` (stereo not drawn) | 23.76% | 12.89% |
| `O=C(c1[nH]nc(C2CC2)c1Cl)N1CCN(S(=O)(=O)c2ccccc2)CC1` | -3.32% | -5.532% |
| `COc1ccc(CC(=O)N2CC(=O)NCC(C)(C)C2)cc1` | -53.51% | -27.67% |